System: T1, GYL
T1 construct: native lectin from hemolymph, biotin-labelled; signal peptide removed; N-terminus SGEXEAGW and EXEAGW (Edman); 161-residue precursor; 18,118 Da N-glycosylated subunit; disulfide-linked dimer of 36,053 Da; peptides CFSYVDWMSAEEPNDRF, LPFFFLCEKPTETC, WNDLSCSK
Assay: glycan microarray, biotinylated lectin, FITC-streptavidin
Assay type: binding, Glycymeris yessoensis
Conditions: GYL 50 µg/mL; glycan immobilised on chip through spacer

Row | SMILES | Average RFU [RFU]
1 | CC(=O)N[C@H]1[C@@H](O[C@H]2[C@@H](O)[C@@H](CO)O[C@@H](O[C@H]3[C@H](O[C@@H]4O[C@@H](C)[C@@H](O)[C@@H](O)[C@@H]4O)[C@@H](NC(C)=O)[C@H](OCCCN)O[C@@H]3CO)[C@@H]2O)O[C@H](CO)[C@H](O)[C@@H]1O [compound 404, GalNAcα1-3Galβ1-4(Fucα1-3)GlcNAcβ-sp3] | 9114
2 | CC(=O)N[C@H]1[C@H](OCCCN)O[C@H](CO)[C@@H](O[C@@H]2O[C@H](CO)[C@H](OS(=O)(=O)O)[C@H](O)[C@H]2O)[C@@H]1O [compound 159, 4-O-Su-Galβ1-4GlcNAcβ-sp3] | 5774
3 | CC(=O)N[C@H]1[C@H](OCCN)O[C@H](CO)[C@@H](O[C@@H]2O[C@H](COS(=O)(=O)O)[C@H](OS(=O)(=O)O)[C@H](O)[C@H]2O)[C@@H]1O [compound 183, 4,6-O-Su2-Galβ1-4GlcNAcβ-sp2] | 3338
4 | CC(=O)N[C@H]1[C@H](OCCCN)O[C@H](CO)[C@@H](O[C@@H]2O[C@H](CO)[C@H](O)[C@H](O[C@H]3O[C@H](CO)[C@H](O)[C@H](O)[C@H]3NC(C)=O)[C@H]2O[C@@H]2O[C@@H](C)[C@@H](O)[C@@H](O)[C@@H]2O)[C@@H]1O [compound 368, GalNAcα1-3(Fucα1-2)Galβ1-4GlcNAcβ-sp3] | 2080

From publication PMC9965136, “Molecular Cloning and Characteristics of a Lectin from the Bivalve Glycymeris yessoensis” (Marine Drugs, 2023)
